According to PubChem BioAssay AID2685 (National Center for Advancing Translational Sciences (NCATS), 2010):
The other results are listed elsewhere or left out. Further columns of the screen follow, without active or inactive calls. Most of these compounds were active or inconclusive in the main read-out, so they are no random draw. Potencies come from curve fits of mixed quality, noted in brackets.

Test: qHTS Assay for Lipid Storage Modulators in Drosophila S3 Cells;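 on cell number change: cells counted by Cell Tracker Red CMTPX staining in the red channel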
Details: BODIPY lipid droplet fluorescence, 18-24 h; for cell number change: measured here: cell count max response, cells fed with added oleic acid
Summary of the method: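 Laser-scanning cytometry quantifies lipid droplet accumulation (500–530 nm total intensity; droplet/cell object ratio) in oleic acid-fed (400 uM added) Drosophila S3 cells treated with a concentration series. 20 uM Triacsin C defined 100% inhibition.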

[1] = measured here: cell number channel AC50, cells fed with added oleic acid
[2] = measured here: lipid fluorescence (Fed channel) AC50, cells fed with added oleic acid

## COc1ccc(-c2c[n+]3c4n2CCCCC4=C(c2ccc(Br)cc2)C3)cc1
  cell number change: -40.1%
[1]
  AC50: 32.6 µM [falling, single point]
[2]
  AC50: 32.6 µM [falling, partial curve]

## NC1=NC(=O)CC(C(=O)Nc2cccc3ccccc23)S1 (stereo unspecified)
  cell number change: -9.49%
[2]
  AC50: 2.06 µM [falling, partial curve, poor fit]

## CCC(CO)NCc1ccc(Br)cc1 (stereo unspecified)
  cell number change: 123%
[1]
  AC50: 29.1 µM [rising, single point]
[2]
  AC50: 29.1 µM [rising, single point]

## Cc1cccc2c(C(=O)N3CCN(c4ccccn4)CC3)cc(-c3cccc(Br)c3)nc12
  cell number change: 34.3%
[1]
  AC50: 35.5 µM [rising, single point]
[2]
  AC50: 2.51 µM [rising, full curve]

## Clc1ccccc1-c1nnc2sc(-c3cccs3)nn12
  cell number change: -19.7%
[2]
  AC50: 9.2 µM [rising, partial curve]

## Cc1cccc(C)c1NC(=O)CCCSc1nnc(-c2ccc(F)cc2)n1-c1ccccc1
  cell number change: 15.7%
[2]
  AC50: 29.1 µM [falling, single point]

## Cc1occc1C(=O)NNC(=O)Nc1ccc(F)cc1F
  cell number change: 25.8%
[2]
  AC50: 18.4 µM [rising, partial curve]

## O=C(Nc1ccccc1)c1ccc(CSc2ccccn2)cc1
  cell number change: 8.31%
[2]
  AC50: 0.92 µM [falling, full curve, poor fit]

## Cn1nccc1C(=O)Nc1sc2c(c1C#N)CCCC2
  cell number change: -16.2%

## O=C(c1cccc(N2C(=O)C3C4C=CC(C4)C3C2=O)c1)N1CCN(c2ccccc2)CC1 (stereo unspecified)
  cell number change: 17.7%
[2]
  AC50: 0.82 µM [rising, full curve, poor fit]

## O=C1c2ccccc2C(=O)N1CCCCSc1nc2ccccc2c(=O)n1CCCN1CCOCC1
  cell number change: 24.1%
[1]
  AC50: 3.66 µM [rising, single point]
[2]
  AC50: 6.51 µM [rising, single point]

## CN(c1ccccc1)S(=O)(=O)c1ccc(C(=O)Nc2nccs2)cc1
  cell number change: -22%
[2]
  AC50: 25.9 µM [falling, single point]

## CC(C)c1ccccc1-n1c(-c2cccnc2)n[nH]c1=S
  cell number change: -14.8%
[1]
  AC50: 0.651 µM [falling, single point]

## CCCc1cc2c(=O)c(-c3cscn3)c(C(=O)OCC)oc2cc1O
[2]
  AC50: 16.4 µM [rising, partial curve]

## Cc1cc(C(=O)CN2C(=O)c3ccccc3S2(=O)=O)c(C)n1-c1ccccc1
  cell number change: 15.4%
[2]
  AC50: 1.84 µM [rising, partial curve]

## CCN(CC(=O)Nc1ccc(NC(C)=O)cc1)C(=O)c1cccc2ccccc12
  cell number change: 21.8%
[2]
  AC50: 9.2 µM [rising, partial curve, poor fit]

## COc1ccc(NC(=O)C2OC3OC(C)(C)OC3C3OC(C)(C)OC23)cc1 (stereo unspecified)
  cell number change: -91.7%
[1]
  AC50: 29.1 µM [falling, single point]
[2]
  AC50: 3.26 µM [rising, single point]

## O=C(CCCSc1nc2ccccc2s1)Nc1nccs1
  cell number change: 9.39%

## Cc1ccc(CNC(=O)CCCn2c(=O)c3ccccc3n(CC(=O)NC3CCCC3)c2=O)cc1
[1]
  AC50: 2.59 µM [rising, single point]

## CCOC(=O)N1CCN(C(=S)NC2CCCC2)CC1
  cell number change: 32.5%

## Cc1ccccc1-c1nnc(SCC(=O)c2c(N)n(C3CC3)c(=O)[nH]c2=O)o1
  cell number change: -5.7%
[2]
  AC50: 3.66 µM [rising, full curve, poor fit]

## NS(=O)(=O)c1cccc(NC(=O)Nc2ccc(Cl)cc2)c1
  cell number change: -9.29%

## Cc1ccc(-c2ocnc2C(=O)N2CCN(C(=O)c3cccs3)CC2)cc1
[2]
  AC50: 5.17 µM [rising, partial curve]

## CCCCC(=O)NC(=S)NNC(=O)CC#N
  cell number change: 32.7%
[1]
  AC50: 16.4 µM [rising, single point]

## O=C(CCN1CCCCC1=O)NC1CCCN(Cc2ccc(Cl)cc2)C1 (stereo unspecified)
  cell number change: -0.54%
[2]
  AC50: 29.1 µM [falling, single point]

## O=C(Cn1cc(C(F)(F)F)cc(Cl)c1=O)Nc1cccc(S(=O)(=O)N2CCCCC2)c1
  cell number change: 0.501%
[1]
  AC50: 0.164 µM [falling, full curve, poor fit]

## COc1ccc(C(=O)N/N=C(/C)c2cccc(NC(=O)c3ccncc3)c2)cc1OC
  cell number change: 5.1%
[2]
  AC50: 29.1 µM [rising, single point]

## COc1ccc(-c2nc3ccc(C)cc3c(=O)o2)cc1OC
  cell number change: 15.2%
[2]
  AC50: 14.6 µM [falling, single point]

## Cc1ccc(NC(=O)c2ccc(OC(=O)C(C)Oc3ccc(Cl)cc3C)cc2)cc1 (stereo unspecified)
[2]
  AC50: 6.51 µM [falling, partial curve]

## CCCN1CCN(C(=O)c2ccc(F)c(S(=O)(=O)N3CCOCC3)c2)CC1
  cell number change: 6.81%

## Cc1cccc(Nc2ccc(S(=O)(=O)N3CCOCC3)cc2[N+](=O)[O-])c1
  cell number change: -11.4%

## Cc1ccccc1-c1ccc(Nc2ccc(C(=O)N3CCOCC3)cc2)nn1
[1]
  AC50: 6.51 µM [rising, single point]

## O=C(O)C1CSC2(c3ccc4c(c3)OCCO4)CCC(=O)N12 (stereo unspecified)
  cell number change: -40.4%
[1]
  AC50: 0.259 µM [falling, full curve, poor fit]
[2]
  AC50: 4.11 µM [falling, full curve, poor fit]

## Cc1oc2ccc(NS(=O)(=O)c3ccc(F)cc3)cc2c1C(=O)O
  cell number change: 15.1%
[1]
  AC50: 2.31 µM [rising, partial curve, poor fit]

## CCOC(=O)C1CCN(C(=O)CSc2n[nH]c(=O)[nH]c2=O)CC1
  cell number change: -89.8%
[1]
  AC50: 6.51 µM [falling, partial curve]
[2]
  AC50: 8.2 µM [falling, partial curve]

## CCN1CCCC1CNS(=O)(=O)c1ccc(Cl)c(C(F)(F)F)c1 (stereo unspecified)
[2]
  AC50: 29.1 µM [rising, partial curve, poor fit]

## O=C1C2C3C=CC(C3)C2C(=O)N1CNc1ccc(O)cc1 (stereo unspecified)
  cell number change: 4.06%
[2]
  AC50: 1.16 µM [falling, single point]

## CNc1nc(C)c(C(=O)OCC(=O)OC)s1
  cell number change: -14.2%
[2]
  AC50: 0.517 µM [falling, full curve, poor fit]

## CCOC(=O)C1=C(C)N[C@@]2(O)c3ccccc3C(=O)[C@@]12O
  cell number change: -13.5%
[2]
  AC50: 3.26 µM [falling, partial curve]

## Cc1nc2c3cc(F)ccc3n(Cc3ccc(F)cc3)c2s1
  cell number change: 21.6%
[2]
  AC50: 4.11 µM [falling, single point]

## Cc1c(NC(=O)/C(=C/c2cccs2)c2cccs2)c(=O)n(-c2ccccc2)n1C
  cell number change: 11.5%
[2]
  AC50: 0.0731 µM [rising, full curve]

## COCCn1c(=NC(=O)/C=C/c2cccs2)sc2cc(NC(C)=O)ccc21
  cell number change: -22%
[2]
  AC50: 29.1 µM [falling, single point]

## CC(=O)Oc1ccc(C(=O)O)cc1OC(C)=O
  cell number change: 4.05%
[1]
  AC50: 0.00461 µM [falling, full curve, poor fit]
[2]
  AC50: 2.91 µM [rising, single point]

## C=CCn1c(-c2ccccc2OC)n[nH]c1=S
  cell number change: 37.6%
[2]
  AC50: 29.1 µM [rising, single point]

## Cc1sc2nc3n(c(=O)c2c1C)Cc1ccccc1-3
  cell number change: 23.8%
[1]
  AC50: 2.31 µM [rising, full curve, poor fit]
[2]
  AC50: 3.26 µM [rising, partial curve]

## O=C(CC1NCCNC1=O)Nc1ccc2c(c1)OCCO2 (stereo unspecified)
  cell number change: -88.5%
[1]
  AC50: 29.1 µM [falling, single point]
[2]
  AC50: 4.11 µM [falling, partial curve]

## COc1ccc(NC(=O)/C(C#N)=C/c2ccc(-c3ccc(Cl)c(C(=O)O)c3)o2)cc1
  cell number change: -11.6%

## N#Cc1ccc2c(c1)C[C@]1(c3ccsc3)Oc3c(c(=O)oc4ccccc34)C2O1
[2]
  AC50: 5.31 µM [rising, single point]

## COc1ccc(-n2c(-c3ccccc3)nc(=S)c3c2CCCC3)cc1
  cell number change: -13.4%
[1]
  AC50: 0.092 µM [falling, full curve, poor fit]

## CC(=O)N1CCN(C(=O)c2ccc(S(=O)(=O)Nc3cccc(C(F)(F)F)c3)cc2)CC1
  cell number change: 33.2%
[1]
  AC50: 32.6 µM [rising, single point]
[2]
  AC50: 14.6 µM [rising, partial curve]

## O=C(CSc1nc2c(c(=O)[nH]1)CCC2)Nc1cccc(Cl)c1
  cell number change: 7.21%
[2]
  AC50: 29.1 µM [rising, single point]

## COc1cc(C(=O)NCc2ccc(C)cc2)ccc1OC(F)F
  cell number change: 33.2%
[1]
  AC50: 2.91 µM [rising, partial curve]
[2]
  AC50: 2.31 µM [rising, partial curve]

## CC(C)(C)c1ccc(OCC(=O)NNC(=S)NC(=O)c2ccco2)c(Br)c1
  cell number change: -0.431%
[2]
  AC50: 32.6 µM [rising, single point]

## Cn1c(COc2ccccc2)nnc1SCC(=O)Nc1ccc(N2CCOCC2)c(Cl)c1
  cell number change: -51.9%
[1]
  AC50: 5.17 µM [falling, full curve]
[2]
  AC50: 4.61 µM [falling, partial curve]

## CCC(Oc1ccccc1)C(=O)Nc1cc(Cl)ccc1-n1cncn1 (stereo unspecified)
  cell number change: -32.2%

## O=C(COC(=O)/C=C/c1ccc2c(c1)OCO2)NCc1ccccc1
  cell number change: -20.7%
[2]
  AC50: 6.51 µM [falling, single point]

## CCc1ccc(NC(=O)c2sc3nc(C)nc(N4CCN(c5ccccn5)CC4)c3c2C)cc1
  cell number change: 2.7%
[2]
  AC50: 0.231 µM [falling, full curve, poor fit]

## CCCNC(=O)c1ccccc1NC(=O)c1ccccc1SC
  cell number change: 15.6%

## Cc1c(Cc2ccccc2)sc(/N=C/c2c(O)ccc3ccccc23)c1C(N)=O
  cell number change: 55.7%
[1]
  AC50: 20.6 µM [rising, single point]
[2]
  AC50: 29.1 µM [falling, single point]
